Reference: PubChem BioAssay AID1259308 (NCATS, 2017)

Purpose: 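Knock-downs that increase output of a recombinant reporter protein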 (primary screen)
Cells: human HEK293 embryonic kidney cells stably expressing firefly luciferase (HEK-CMV-Luc2-Hygro)
Reagent: single siRNA against human genes, 0.8 pmol siRNA per well
Time to read-out: 72 h
Measured: 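Reporter luminescence and viable-cell signal on separate replicate plates, given as percent of non-targeting control and median/MAD z-scores, plus per-cell luciferase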
Scale: total luciferase, z-score and total luciferase, % of control: higher = more reporter protein produced
Active means: 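An siRNA counts as active if its total luciferase robust z-score exceeds 3; genes with two or more such siRNAs out of three were retested with fresh siRNAs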
Meaning of the calls: active = raised luciferase; inactive = no rise
This is an unselected part of about 59,000 reagents. About 1,510 of them (2.6%) were called active. 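Calls use total luciferase alone and ignore viability, so some active siRNAs may act by altering cell number.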 A number with no mark means an inactive call. Reagents against one gene are numbered here. Further read-outs or replicates are left out here.

The first 6 records as a preview:
| target gene | reagent | total luciferase, z-score | total luciferase, % of control |
| --- | --- | --- | --- |
| GPR22 | 1 | 0.755 | 96.9 |
| GPR22 | 2 | 0.00213 | 81.9 |
| GPR22 | 3 | -0.857 | 64.9 |
| OCM2 | 1 | 1.06 | 103 |
| OCM2 | 2 | -0.82 | 65.6 |
| OCM2 | 3 | 0.0113 | 82.1 |

Main list, from the start:
| target gene | reagent | total luciferase, z-score | total luciferase, % of control |
| --- | --- | --- | --- |
| GPR22 | 1 | 0.755 | 96.9 |
| GPR22 | 2 | 0.00213 | 81.9 |
| GPR22 | 3 | -0.857 | 64.9 |
| OCM2 | 1 | 1.06 | 103 |
| OCM2 | 2 | -0.82 | 65.6 |
| OCM2 | 3 | 0.0113 | 82.1 |
| FLNC | 1 | -0.489 | 72.2 |
| FLNC | 2 | 0.501 | 91.8 |
| FLNC | 3 | 3.19 (active) | 145 |
| TMED6 | 1 | 0.396 | 89.8 |
| TMED6 | 2 | 0.383 | 89.5 |
| TMED6 | 3 | 0.453 | 90.9 |
| POPDC3 | 1 | -0.0916 | 80.1 |
| POPDC3 | 2 | -0.388 | 74.2 |
| POPDC3 | 3 | 0.325 | 88.4 |
| KBTBD11 | 1 | 0.98 | 101 |
| KBTBD11 | 2 | -0.0915 | 80.1 |
| KBTBD11 | 3 | 0.157 | 85 |
| RPS26P10 | 1 | -2.78 | 26.5 |
| RPS26P10 | 2 | -3.55 | 11.2 |
| RPS26P10 | 3 | 0.638 | 94.6 |
| ZNF572 | 1 | -0.0885 | 80.1 |
| ZNF572 | 2 | 0.0079 | 82 |
| ZNF572 | 3 | -0.208 | 77.8 |
| CASP4 | 1 | 2.68 | 135 |
| CASP4 | 2 | -0.0406 | 81.1 |
| CASP4 | 3 | -1.17 | 58.5 |
| GOLGA8B | 1 | 1.25 | 107 |
| GOLGA8B | 2 | -0.654 | 68.9 |
| GOLGA8B | 3 | 1.22 | 106 |
| PITPNM3 | 1 | -0.0839 | 80.2 |
| PITPNM3 | 2 | 0.481 | 91.5 |
| PITPNM3 | 3 | 0.497 | 91.8 |
| ETHE1 | 1 | -1.2 | 58 |
| ETHE1 | 2 | -0.015 | 81.6 |
| ETHE1 | 3 | 1.24 | 107 |
| PON2 | 1 | 1.03 | 102 |
| PON2 | 2 | -0.171 | 78.5 |
| PON2 | 3 | -0.865 | 64.7 |
| SQLE | 1 | -0.868 | 64.6 |
| SQLE | 2 | 0.656 | 94.9 |
| SQLE | 3 | 0.731 | 96.4 |
| TRARG1 | 1 | 1.42 | 110 |
| TRARG1 | 2 | 1.25 | 107 |
| TRARG1 | 3 | -0.672 | 68.5 |
| RPL36AP46 | 1 | 1.1 | 104 |
| RPL36AP46 | 2 | 0.338 | 88.6 |
| RPL36AP46 | 3 | -1.02 | 61.7 |
| CEBPG | 1 | -2.07 | 40.8 |
| CEBPG | 2 | -0.297 | 76 |
| CEBPG | 3 | -2.28 | 36.5 |
| PCDHB12 | 1 | -0.563 | 70.7 |
| PCDHB12 | 2 | -0.541 | 71.1 |
| PCDHB12 | 3 | -0.0514 | 80.9 |
| MXRA7 | 1 | 1.76 | 117 |
| MXRA7 | 2 | -0.912 | 63.7 |
| MXRA7 | 3 | -1.92 | 43.7 |
| DIRC1 | 1 | 0.837 | 98.5 |
| DIRC1 | 2 | 0.0255 | 82.4 |
| DIRC1 | 3 | 0.879 | 99.4 |
| MYO1C | 1 | 0.0376 | 82.6 |
| MYO1C | 2 | 0.0731 | 83.3 |
| MYO1C | 3 | -0.159 | 78.7 |
| P2RY12 | 1 | 0.187 | 85.6 |
| P2RY12 | 2 | -0.318 | 75.6 |
| P2RY12 | 3 | -0.578 | 70.4 |
| PPIAP74 | 1 | -2.31 | 35.9 |
| PPIAP74 | 2 | 0.294 | 87.7 |
| PPIAP74 | 3 | 0.215 | 86.2 |
| DHX9-AS1 | 1 | -0.726 | 67.4 |
| DHX9-AS1 | 2 | -1.38 | 54.5 |
| DHX9-AS1 | 3 | -1.24 | 57.3 |
| PLD5 | 1 | -0.759 | 66.8 |
| PLD5 | 2 | 0.118 | 84.2 |
| PLD5 | 3 | -0.568 | 70.6 |
